Reference: publication PMC10005750 (Molecules, 2023)

Experiments:
[1] = Pharmacokinetic interaction study after oral administration of DPZ and TAD, alone or in combination, in rats; conditions: rat
Description: The rat plasma was stored at −70 °C. The plasma samples were thawed at room temperature and then centrifuged at 1800× g (4 °C) for 8 min before pipetting. Using a micropipette, 30 µL of the plasma sample was transferred into a polypropylene microtube, and 10 µL of IS working solution was added to each sample. Further, 0.2 mL of acetonitrile was then added and vortexed for 1 min. […] The supernatant was transferred to an analytical vessel, and 2 µL of the sample was injected into the LC-MS/MS system.
Rats were divided into three groups (n = 3): group 1, DPZ (3 mg/kg); group 2, TAD (0.3 mg/kg); and group 3, DPZ (3 mg/kg) combined with TAD (0.3 mg/kg). Animals were fasted overnight and allowed free access to water.
The peak plasma concentration, Cmax, and Tmax (the time to reach Cmax) for DPZ and TAD were calculated using individual plasma concentration–time profiles. […] The terminal half-life (T1/2) was calculated as ln 2/λz (λz is the elimination rate constant estimated by using the least-squares linear regression method of the terminal log-linear portion of the plasma concentration–time curve). The apparent clearance (CL/F) was calculated as CL/F = dose/AUC0-∞. The Mann–Whitney U test was used to determine the differences in the mean plasma concentration and PK profiles of DPZ and TAD between the single and combined administration groups. Statistical analysis was performed using SPSS Statistics (version 26.0; IBM SPSS Statistics for Windows, Armonk, NY, USA), and a p-value < 0.05 was considered statistically significant.

[2] = Stock solution stability (peak area vs fresh stock solutions); conditions: stock solution in methanol
Description: (§1) Standard stock solutions of DPZ, TAD, and LPZ (IS) were prepared in methanol at a concentration of 100 µg/mL and stored at −20 °C. Working solutions were prepared by diluting the stock solutions with 50% methanol. The concentration of DPZ and TAD ranged from 1 to 200 ng/mL. […] The IS working solution was prepared by diluting the stock solution with 50% methanol to a concentration of 20 ng/mL. All working stock solutions were prepared and stored at −20 °C until use. Calibration standards and QC samples of DPZ and TAD in rat plasma were diluted with the corresponding working solutions and blank rat plasma. Drug-free plasma, that is, control (blank) plasma, stored in a deep freezer, was completely thawed at room temperature before use. Ten percent spiking with working DPZ and TAD stock solutions was performed in blank plasma. The spiked QC samples were stored at −70 °C for stability studies.
(§2) Stability analyses of the stock solutions were performed at room temperature for 3 h and under refrigerated conditions (4 °C) for 14 days. The stability of the plasma analytes was tested for low and high QC under pre-specified conditions: room temperature for 5 h, refrigeration (4 °C) for 14 days, autosampler (10 °C) for 20 h, four cycles of freezing-thawing, and finally frozen conditions (−70 °C) for 28 days for long-term stability.

[3] = Plasma sample stability at low and high QC under storage and handling conditions; conditions: deviations from nominal concentration within ±15%
Description: as §1, §2

[4] = male, Sprague-Dawley, in vivo, po, 3 mg/kg

COc1cc2c(cc1OC)C(=O)C(CC1CCN(Cc3ccccc3)CC1)C2 (stereo not drawn) [Donepezil, donepezil]
AUC(0-inf) [1, 4]: 0.134 ± 0.0379 µg·h/mL
Cmax [1, 4]: 0.0598 ± 0.0155 µg/mL
MRT last [1, 4]: 2.62 ± 0.923 h
differences in mean plasma concentration and PK parameters between single and combination groups ([1]; oral, DPZ 3 mg/kg and TAD 0.3 mg/kg, Mann–Whitney U test, p > 0.05): statistically insignificant
Stock solution stability (Mean ± SD, %) ([2]; refrigeration (4 °C, 14 days)): 103.53 ± 1.71%
Stock solution stability (Mean ± SD, %) ([2]; refrigeration (4 °C, 14 days), listed as DPZ): 103.53%
Stock solution stability (Mean ± SD, %) ([2]; room temperature (3 h)): 103.43 ± 0.58%
Stock solution stability (Mean ± SD, %) ([2]; room temperature (3 h), listed as DPZ): 103.43%
stability in rat plasma under all examined conditions [3]: stable
